Experimental data as given in patent US8183287B2, “Pharmaceutical formulations and compositions of a selective antagonist of either CXCR2 or both CXCR1 and CXCR2 and methods of using the same for treating inflammatory disorders” (Schering Corporation, priority 2006, dated 2012).
At least one read-out could not be matched to a standard name with certainty.

Experiment: clinical study (ii): single-dose 30 mg, fasted or fed subjects, Formulation 1 capsules
Type: in vivo, human
Settings: single oral dose 30 mg, fed vs fasted

## CC[C@@H](Nc1c(Nc2cccc(C(=O)N(C)C)c2O)c(=O)c1=O)c1ccc(C)o1 [Compound I]
  effect of food on Cmax or AUC: no clinically meaningful effect of food
